Test results taken from PMC3425481.
These are yes or no findings as the source states them, for the method shown. Binding seen in cells or lysates may run through a third protein. Some binding calls cover weakened binding; strength is not graded here.

The chains behind the UniProt entries cited, without tags or fusion partners.
UniProt P84022: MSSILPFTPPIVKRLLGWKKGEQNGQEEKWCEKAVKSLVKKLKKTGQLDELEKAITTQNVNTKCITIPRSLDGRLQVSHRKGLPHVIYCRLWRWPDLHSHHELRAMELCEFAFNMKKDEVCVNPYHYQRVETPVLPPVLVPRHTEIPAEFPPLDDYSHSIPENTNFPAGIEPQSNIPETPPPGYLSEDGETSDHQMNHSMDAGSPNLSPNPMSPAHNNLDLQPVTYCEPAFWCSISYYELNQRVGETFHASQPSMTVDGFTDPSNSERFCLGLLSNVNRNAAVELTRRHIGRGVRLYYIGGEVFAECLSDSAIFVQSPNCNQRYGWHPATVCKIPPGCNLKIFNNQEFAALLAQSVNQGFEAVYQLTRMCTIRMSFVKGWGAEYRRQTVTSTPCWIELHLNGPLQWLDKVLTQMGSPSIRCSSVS

Target: Smad3 phosphorylated at the C-terminus (pSmad3C) (human (endogenous in ES-2)) (UniProt P84022)
Experiment: co-IP; immunoprecipitation with α-pSmad3C (overnight, 4°C) and protein A-sepharose from lysates of 10^8 ES-2 cells treated with TGF-β1 (1 h) or 2ME2 (16 h); 420 mM NaCl, 50 mM Hepes pH 7.8, 5 mM EDTA, 1% NP-40, 3% DTT; blots with α-Ski, α-Smurf2, α-tSmad2/3; control: sepharose beads alone

B1: Ski (protein, UniProt P12755 1-728)
chain: MEAAAGGRGCFQPHPGLQKTLEQFHLSSMSSLGGPAAFSARWAQEAYKKESAKEAGAAAVPAPVPAATEPPPVLHLPAIQPPPPVLPGPFFMPSDRSTERCETVLEGETISCFVVGGEKRLCLPQILNSVLRDFSLQQINAVCDELHIYCSRCTADQLEILKVMGILPFSAPSCGLITKTDAERLCNALLYGGAYPPPCKKELAASLALGLELSERSVRVYHECFGKCKGLLVPELYSSPSAACIQCLDCRLMYPPHKFVVHSHKALENRTCHWGFDSANWRAYILLSQDYTGKEEQARLGRCLDDVKEKFDYGNKYKRRVPRVSSEPPASIRPKTDDTSSQSPAPSEKDKPSSWLRTLAGSSNKSLGCVHPRQRLSAFRPWSPAVSASEKELSPHLPALIRDSFYSYKSFETAVAPNVALAPPAQQKVVSSPPCAAAVSRAPEPLATCTQPRKRKLTVDTPGAPETLAPVAAPEEDKDSEAEVEVESREEFTSSLSSLSSPSFTSSSSAKDLGSPGARALPSAVPDAAAPADAPSGLEAELEHLRQALEGGLDTKEAKEKFLHEVVKMRVKQEEKLSAALQAKRSLHQELEFLRVAKKEKLREATEAKRNLRKEIERLRAENEKKMKEANESRLRLKRELEQARQARVCDKGCEAGRLRAKYSAQIEDLQVKLQHAEADREQLRADLLREREAREHLEKVVKELQEQLWPRARPEAAGSEGAAELEP
binding: binds
